# Values quoted from earlier work as cited in patent US20050281746A1, “Anticoagulant contrast media” (priority 2004, published 2005).
# Some entries share one result that the patent states for a list of compounds. At least one compound was matched to its structure with a doubt left. Some compounds share one range, which may span the group rather than tell each member.
# Experiments:
# [1] = X-ray contrast agents grouped by structure; classes High / Low / Iso
# [2] = X-ray contrast agents grouped by structure
SMILES,Osmolality (mOsm/kg) [1],Viscosity (cps) [2]
CN(C(=O)CO)c1c(I)c(C(=O)NCC(O)CO)c(I)c(C(=O)NCC(O)CO)c1I (stereo not shown) [Iomerpol],(600-1000) mOsm/kg,10-20 cps
C[C@H](O)C(=O)Nc1c(I)c(C(=O)NC(CO)CO)c(I)c(C(=O)NC(CO)CO)c1I [Iopamidol],(600-1000) mOsm/kg,10-20 cps
CC(=O)N(CC(O)CO)c1c(I)c(C(=O)NCC(O)CO)c(I)c(C(=O)NCC(O)CO)c1I (stereo not shown) [Iohexol],(600-1000) mOsm/kg,10-20 cps

# Now from value to molecule:
Osmolality (mOsm/kg) [1],Viscosity (cps) [2],SMILES
(600-1000) mOsm/kg,10-20 cps,COCC(O)CN(C(C)=O)c1c(I)c(C(=O)NCC(O)CO)c(I)c(C(=O)NCC(O)CO)c1I (stereo not shown) [Iopentol]
(600-1000) mOsm/kg,10-20 cps,COCC(=O)Nc1c(I)c(C(=O)NCC(O)CO)c(I)c(C(=O)N(C)CC(O)CO)c1I (stereo not shown) [Iopromide]
